Measured values reported in paper PMC8836657.
No constants are given. Whether binding was seen depends on the method and setting. In cells and extracts the contact can be indirect. These calls come from enrichment with a bait or labelling near it, and not all partners need be listed.

The chains behind the UniProt entries cited, without tags or fusion partners.
UniProt P17096: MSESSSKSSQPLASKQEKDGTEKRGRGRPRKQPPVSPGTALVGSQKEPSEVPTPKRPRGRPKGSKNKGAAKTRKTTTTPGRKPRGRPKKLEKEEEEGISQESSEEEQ
UniProt Q93008: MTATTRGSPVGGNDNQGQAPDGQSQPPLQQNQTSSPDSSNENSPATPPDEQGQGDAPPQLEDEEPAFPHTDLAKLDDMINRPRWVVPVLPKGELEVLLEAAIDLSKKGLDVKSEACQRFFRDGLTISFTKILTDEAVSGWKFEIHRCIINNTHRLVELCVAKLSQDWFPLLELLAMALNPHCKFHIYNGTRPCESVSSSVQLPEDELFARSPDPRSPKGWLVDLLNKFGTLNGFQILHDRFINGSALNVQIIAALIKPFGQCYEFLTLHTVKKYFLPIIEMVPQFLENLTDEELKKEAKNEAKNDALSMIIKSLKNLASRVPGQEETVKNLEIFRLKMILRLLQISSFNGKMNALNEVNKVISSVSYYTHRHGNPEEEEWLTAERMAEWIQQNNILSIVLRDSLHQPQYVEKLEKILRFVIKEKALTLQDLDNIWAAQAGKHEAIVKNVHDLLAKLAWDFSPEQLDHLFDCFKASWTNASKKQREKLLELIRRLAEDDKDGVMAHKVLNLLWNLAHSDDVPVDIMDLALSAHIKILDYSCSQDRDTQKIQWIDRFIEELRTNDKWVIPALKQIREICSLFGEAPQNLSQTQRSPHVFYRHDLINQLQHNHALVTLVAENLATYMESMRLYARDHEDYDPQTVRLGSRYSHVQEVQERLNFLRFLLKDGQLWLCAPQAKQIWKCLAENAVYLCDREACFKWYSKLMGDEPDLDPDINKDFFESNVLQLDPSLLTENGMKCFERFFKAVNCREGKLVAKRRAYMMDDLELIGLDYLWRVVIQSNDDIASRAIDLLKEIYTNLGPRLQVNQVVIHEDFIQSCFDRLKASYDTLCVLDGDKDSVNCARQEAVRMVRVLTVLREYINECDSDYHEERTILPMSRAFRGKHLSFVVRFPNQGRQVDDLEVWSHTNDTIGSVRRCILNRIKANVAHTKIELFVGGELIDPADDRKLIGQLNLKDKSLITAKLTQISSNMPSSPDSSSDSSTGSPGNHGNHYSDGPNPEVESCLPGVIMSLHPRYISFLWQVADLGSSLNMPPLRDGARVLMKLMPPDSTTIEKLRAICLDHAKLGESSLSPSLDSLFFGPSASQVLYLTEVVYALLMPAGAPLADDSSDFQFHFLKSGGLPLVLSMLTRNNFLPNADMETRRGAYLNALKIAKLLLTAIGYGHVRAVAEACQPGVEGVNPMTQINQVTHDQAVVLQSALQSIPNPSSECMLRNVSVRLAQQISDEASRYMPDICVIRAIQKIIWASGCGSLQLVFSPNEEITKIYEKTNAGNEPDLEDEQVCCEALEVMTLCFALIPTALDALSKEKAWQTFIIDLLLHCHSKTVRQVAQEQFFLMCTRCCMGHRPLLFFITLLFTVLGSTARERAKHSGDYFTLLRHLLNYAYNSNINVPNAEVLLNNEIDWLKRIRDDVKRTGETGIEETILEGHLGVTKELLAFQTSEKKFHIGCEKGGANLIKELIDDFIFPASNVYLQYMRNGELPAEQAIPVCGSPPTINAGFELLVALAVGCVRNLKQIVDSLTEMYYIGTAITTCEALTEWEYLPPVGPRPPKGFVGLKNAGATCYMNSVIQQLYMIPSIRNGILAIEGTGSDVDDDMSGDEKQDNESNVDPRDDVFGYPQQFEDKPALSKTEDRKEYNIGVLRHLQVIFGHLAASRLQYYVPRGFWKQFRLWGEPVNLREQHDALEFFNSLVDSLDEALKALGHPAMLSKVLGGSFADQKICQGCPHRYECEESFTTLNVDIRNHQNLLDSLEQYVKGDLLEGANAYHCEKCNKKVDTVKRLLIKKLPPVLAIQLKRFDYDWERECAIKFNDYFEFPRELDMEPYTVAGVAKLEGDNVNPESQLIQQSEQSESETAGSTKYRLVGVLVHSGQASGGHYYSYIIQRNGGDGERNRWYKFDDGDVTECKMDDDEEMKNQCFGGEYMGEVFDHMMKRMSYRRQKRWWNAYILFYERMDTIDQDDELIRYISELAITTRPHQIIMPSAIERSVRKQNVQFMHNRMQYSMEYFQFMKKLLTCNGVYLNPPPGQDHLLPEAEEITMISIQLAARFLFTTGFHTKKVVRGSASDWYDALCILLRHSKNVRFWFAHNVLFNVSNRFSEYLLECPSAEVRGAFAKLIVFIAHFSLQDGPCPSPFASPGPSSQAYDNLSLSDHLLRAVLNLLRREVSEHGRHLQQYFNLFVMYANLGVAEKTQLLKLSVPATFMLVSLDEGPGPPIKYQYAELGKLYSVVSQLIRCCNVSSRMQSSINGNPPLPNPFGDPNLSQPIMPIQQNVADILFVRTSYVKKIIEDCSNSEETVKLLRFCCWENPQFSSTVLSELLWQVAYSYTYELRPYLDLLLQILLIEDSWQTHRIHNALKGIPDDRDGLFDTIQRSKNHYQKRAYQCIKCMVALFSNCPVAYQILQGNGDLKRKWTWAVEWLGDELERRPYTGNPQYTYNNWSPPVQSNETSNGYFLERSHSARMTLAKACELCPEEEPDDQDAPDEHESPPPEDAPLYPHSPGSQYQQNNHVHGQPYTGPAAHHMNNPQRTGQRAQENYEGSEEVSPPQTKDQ
UniProt Q93009: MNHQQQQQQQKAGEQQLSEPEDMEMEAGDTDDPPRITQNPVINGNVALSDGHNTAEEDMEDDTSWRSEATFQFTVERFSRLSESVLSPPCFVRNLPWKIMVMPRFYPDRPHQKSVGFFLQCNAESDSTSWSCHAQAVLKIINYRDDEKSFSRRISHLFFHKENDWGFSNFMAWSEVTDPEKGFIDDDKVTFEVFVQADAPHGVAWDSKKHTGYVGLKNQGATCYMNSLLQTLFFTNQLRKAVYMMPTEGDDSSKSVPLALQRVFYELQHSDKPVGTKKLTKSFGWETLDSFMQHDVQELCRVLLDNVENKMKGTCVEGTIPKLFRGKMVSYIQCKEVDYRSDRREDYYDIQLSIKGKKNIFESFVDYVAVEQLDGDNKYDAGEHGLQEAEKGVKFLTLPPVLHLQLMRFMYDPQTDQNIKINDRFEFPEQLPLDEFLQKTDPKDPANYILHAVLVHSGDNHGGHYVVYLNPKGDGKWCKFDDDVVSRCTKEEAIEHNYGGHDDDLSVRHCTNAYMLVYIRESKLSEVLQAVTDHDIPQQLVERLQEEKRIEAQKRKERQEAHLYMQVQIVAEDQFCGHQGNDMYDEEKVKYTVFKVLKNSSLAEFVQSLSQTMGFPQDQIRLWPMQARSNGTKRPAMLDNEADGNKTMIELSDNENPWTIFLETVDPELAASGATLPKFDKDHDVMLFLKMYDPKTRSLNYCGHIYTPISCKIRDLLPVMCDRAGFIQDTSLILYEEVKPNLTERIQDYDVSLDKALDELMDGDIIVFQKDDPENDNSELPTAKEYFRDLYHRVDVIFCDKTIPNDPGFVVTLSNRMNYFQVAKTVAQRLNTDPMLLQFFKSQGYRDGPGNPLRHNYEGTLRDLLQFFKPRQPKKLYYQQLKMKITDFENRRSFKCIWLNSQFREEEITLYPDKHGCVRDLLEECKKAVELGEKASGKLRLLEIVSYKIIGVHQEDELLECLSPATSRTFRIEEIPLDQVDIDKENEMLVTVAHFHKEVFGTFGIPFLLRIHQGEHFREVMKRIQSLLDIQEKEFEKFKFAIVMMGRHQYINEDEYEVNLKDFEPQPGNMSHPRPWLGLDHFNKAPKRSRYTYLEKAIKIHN

Biological target: Flag-HMGA1 (high mobility group A1) (UniProt P17096)
Experiment: affinity purification with mass spectrometry; Flag-HMGA1 in HEK-293T cells, combined with mass spectrometry; called an earlier experiment of the laboratory

Row | Substance | binding
1 | Ubiquitin-specific peptidase 9 (from UniProt Q93008 1-2554) (enzyme) | binds
2 | ubiquitin-specific peptidase 7, endogenous (from UniProt Q93009 1-1102) (enzyme) | binds
